Results are given in words; binding and its absence hold for the method and conditions named. Some entries that bind do so weakly or less than the wild type.

The chains behind the UniProt entries cited, without tags or fusion partners. Where a name states a change or a piece, a line headed by the entry shows the natural chain unless it says otherwise. Residues count along the entry.
UniProt Q9NZC2, residues 19-174: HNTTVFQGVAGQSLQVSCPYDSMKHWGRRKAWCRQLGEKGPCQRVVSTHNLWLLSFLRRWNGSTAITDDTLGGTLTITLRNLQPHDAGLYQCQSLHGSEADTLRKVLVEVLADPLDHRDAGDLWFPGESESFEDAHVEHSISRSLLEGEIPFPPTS

Assay [1] concerns the target T1, epitope peptide from the human TREM2 stalk region (…) (human).
T1 sequence (peptide): DAGDLWFPG
Put plainly: ELISA, coated epitope peptide. On the technique in general: An ELISA detects its analyte on a solid surface through an enzyme-linked reagent.

In assay [2] the target is extracellular domain of human TREM2 (ecTREM2), Hölzel Diagnostika 11084-H08H (human) (UniProt Q9NZC2). Put plainly: ELISA, coated ecTREM2.

B1: antibody M03 (clone M03), fully human IgG1-LALA (antibody, V domains shown)
VH: EVQLVQSGGGLVQPGGSLRLSCAASGFTFSSYGITWVRQAPGKGLEWVSFISGGGSYTYYADSVKGRFTISRDNAKRTLYLQMNSLRAEDTAVYYCARSGRAYFDYWGQGTLVTVSS
VL: DIRLTQPPSVSGAPGQRVTISCSGSSSNIGSLFVSWYQQLPGTAPKLLIYSNSQHPSGVPDRFSGSKSGTSASLAITGLQAEDEADYYCSAYDQFSNSVVFGGGTKLTVLG
In the case of B1, the binding result in assay [1] and in assay [2] was “binds” in each case.

These data come from US20260226160A1.
